Drawing on PubChem BioAssay AID445 (National Center for Advancing Translational Sciences (NCATS), 2006), this text covers AC50 for 63 compounds.

What is called AC50 is the concentration at which the activity in the assay is half-maximal.

The other results are listed elsewhere or left out. Further columns of the screen follow, without active or inactive calls. The list favours compounds with an active or inconclusive main result. Words in brackets tell the shape of the fitted curve; partial curves, single points and poor fits give uncertain potencies.

A short description of the experiment: IkB Signaling. The following applies: ABC-DLBCL IkBa-CBG/CBR dual luciferase ratio (green luciferase fused to IkBa over red control in OCI-Ly3 lymphoma cells), 4 h; measured here: control luc red channel unless noted. Summed up:
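In this assay, an IκBα–CBG68 fusion accumulates when IKK-driven degradation is blocked; native CBR normalizes for cell number. OCI-Ly3 cells were treated 4 h with compound and doxycycline, then green and red light read after Chroma-Glo addition.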
Turning to `CCNC(=O)c1c(C)oc2ncn(C)c(=O)c12`, the AC50 is 39.8 µM [falling, single point].
Consider `Cc1nn(CCCC(=O)Nc2cc(C(F)(F)F)ccc2Cl)c(=O)c2c1sc1ccccc12`, for which the concentration at half-maximal activity (AC50) was 0.01 µM [rising, full curve, poor fit].
With `Cc1ccc(N2CCN(C(=O)c3ccccc3Br)CC2)c(C)c1` the figure was 7.94 µM [falling, partial curve].
Turning to `Cc1ccc2c(c1)cc1c(=O)n(Cc3ccc(Cl)cc3)nc(C)n12`, the concentration at half-maximal activity (AC50) is 6.31 µM [falling, partial curve].
In the case of `COc1cccc(-c2cc(C(=O)Nc3ccc(Br)c(C)c3)[nH]n2)c1`, the concentration at half-maximal activity (AC50) was 1.26 µM [falling, partial curve].
With `COc1ccc(CN(Cc2ccco2)C(=O)c2ccccc2F)cc1` the figure was 20 µM [falling, single point].
For the compound `Cc1cccc(C)c1NS(=O)(=O)c1ccc2c(c1)[C@H]1C=CC[C@H]1[C@@H](c1ccc(Cl)cc1)N2`, the concentration at half-maximal activity (AC50) is 25.1 µM [falling, partial curve].
In the case of `CCn1c(CC2C(=O)Nc3ccccc32)nc2ccccc2c1=O` (stereo not drawn), the concentration at half-maximal activity (AC50) was 39.8 µM [falling, single point].
In the case of `CCc1cc2c(N3CCCCC3)ncnc2s1`, the concentration at half-maximal activity (AC50) was 31.6 µM [falling, single point].
As to `Cc1ccccc1Cn1c2ccccc2c2cnn(CC(=O)NCCCc3ccccc3)c(=O)c21`, the AC50 is 15.8 µM [falling, partial curve].
In the case of `COc1ccc2c(c1)c1c(c(=O)n(-c3ccc(F)c(Cl)c3)c(=O)n1CC(N)=O)n2C`, the half-maximal activity concentration (AC50) was 0.0794 µM [rising, partial curve, poor fit].
As to `COc1ccccc1CNC(=O)CSc1cc(=O)n(C)c2ccccc12`, the AC50 is 12.6 µM [falling, partial curve].
`Cn1nc(C(=O)N2CCN(c3ccc(Cl)cc3)CC2)c2c1-c1ccccc1S(=O)(=O)C2`: the half-maximal activity concentration (AC50) was 12.6 µM [falling, partial curve].
With `CCOc1cccc2sc(N3CCN(C(=O)C(C)(C)C)CC3)nc12` the figure was 6.31 µM [rising, partial curve]; with `Cc1ccc(-c2nnc(SCC(=O)N3CCCc4ccccc43)o2)cc1`, 39.8 µM [falling, single point].
For `CCn1cc(C(=O)NCc2ccc(Cl)cc2)c(=O)c2cc(S(=O)(=O)N3CCOCC3)ccc21` the value was 3.16 µM [falling, full curve, poor fit]; for `COc1cc(NC(=O)c2ccc3c(Cl)c4c(nc3c2)CCC4)cc(OC)c1OC`, 2 µM [falling, full curve].
Regarding `Cc1ccc(C(=O)Nc2ccc(S(=O)(=O)N3CCc4ccccc43)cc2)o1`, the AC50 is 7.94 µM [falling, partial curve].
With `O=C(COc1ccc([N+](=O)[O-])cc1)N1CCC(c2nc3ccccc3s2)CC1`, the AC50 is 10 µM [falling, partial curve].
With `CCc1ccc(CNC(=O)C2CCN(c3nnc(C)c4c(C)n(-c5ccc(C)cc5)nc34)CC2)cc1` the figure was 2 µM [falling, full curve]; with `CCOc1ccc(N(C(C)C(=O)NCCSc2ccc(Cl)cc2)S(C)(=O)=O)cc1` (stereo not drawn), 31.6 µM [falling, single point].
`Cc1cc(NC(=O)c2cc(-c3ccc(Br)cc3)on2)nn1Cc1ccc(Cl)cc1`: the AC50 is 5.01 µM [rising, single point].
With `COc1cc(OC)cc(C(=O)Nc2ccc(-c3nc4ccccc4s3)c(C)c2)c1` the figure was 3.98 µM [rising, partial curve].
Turning to `Cc1ccc(N2C(=O)CS(=O)(=O)C23C(=O)N(Cc2ccccc2C)c2ccccc23)cc1Cl` (stereo not drawn), the AC50 is 3.98 µM [falling, partial curve, poor fit].
Take `O=C1C(C=Nc2ccccc2O)=C(O)c2ccccc21`: the concentration at half-maximal activity (AC50) is 5.01 µM [falling, partial curve].
Take `CCCc1ccc(Oc2cn[nH]c2-c2ccc(O)c(C)c2O)cc1`: the half-maximal activity concentration (AC50) is 15.8 µM [falling, partial curve].
For `Cc1sc2nc(CN(Cc3cccs3)C(=O)C3CC3)[nH]c(=O)c2c1C`, the half-maximal activity concentration (AC50) is 31.6 µM [falling, single point].
Take `Cc1nc2ccn(Cc3ccco3)c(=O)c2cc1C(=O)Nc1ccc(F)cc1`: the AC50 was 12.6 µM [falling, partial curve].
On to `COc1ccc(NC(=O)Cn2nc(-c3ccccc3)c3cnc4ccc(C)cc4c32)cc1`, for which the AC50 was 25.1 µM [rising, partial curve].
For `Cc1ccc(OCC(=O)Nc2ccc3c(c2)sc(=O)n3C)cc1` the value was 25.1 µM [falling, single point]; for `COc1ccc(-n2c(=O)[nH]c3cc(C(=O)NCCc4ccc(Cl)cc4)ccc3c2=O)cc1OC`, 0.2 µM [falling, partial curve, poor fit].
Consider `CNC(=O)[C@H]1O[C@H](n2cnc3c(NCc4cccc(I)c4)nc(Cl)nc32)[C@@H](O)[C@@H]1O`, for which the AC50 was 39.8 µM [falling, single point].
Regarding `COc1ccc(NC(=O)C(NC(=O)C2CCC(C)CC2)C(C)C)cc1` (stereo not drawn), the AC50 was 0.00631 µM [falling, full curve, poor fit].
With `CCCNC(=O)c1ccc2c(c1)nc(C)n2-c1cccc(C)c1` the figure was 0.0316 µM [rising, full curve, poor fit]; with `Cc1nn(C)c2c1c(C(F)(F)F)cc(=O)n2C(C)C(=O)NCCC(C)C` (stereo not drawn), 12.6 µM [falling, partial curve]; with `COc1ccccc1NC(=O)CNC(=O)c1ccccc1`, 2.51 µM [falling, full curve].
For `Cc1ccc(NC(=O)c2nnn(Cc3cccc(C(F)(F)F)c3)c2N)c(C)c1` the value was 1.26 µM [falling, full curve, poor fit]; for `COc1ccc(CNC(=O)CCc2c(C)c3ccc(OC)c(C)c3oc2=O)cc1OC`, 2.51 µM [rising, partial curve]; for `COC(=O)c1ccc(-n2nnc(-c3nc(-c4ccccc4Cl)no3)c2C)cc1`, 20 µM [rising, partial curve].
For `Cc1ccnc(NC(=O)CCCOc2cc(=O)n(C)c3ccccc23)c1` the value was 2 µM [falling, full curve]; for `COc1cc(NC(=O)CSc2nc(-c3ccc(C(C)C)cc3)no2)cc(OC)c1`, 1 µM [falling, full curve].
Consider `Cc1occc1-c1nnc(SCC(=O)N2CCc3ccccc32)o1`, for which the AC50 is 20 µM [rising, partial curve] [measured here: IkB-luc green channel].
Turning to `CCN1CCN(Cc2c(O)ccc3c(=O)c(Oc4ccccc4C(C)C)c(C(F)(F)F)oc23)CC1`, the AC50 is 12.6 µM [falling, partial curve].
With `COc1ccc(-c2nc(C#N)c(NC(C)c3ccccc3)o2)cc1OC` (stereo not drawn), the concentration at half-maximal activity (AC50) was 25.1 µM [falling, partial curve].
For the compound `Cc1ccc(CNC(=O)c2cc3ccc4cccnc4c3[nH]2)cc1`, the AC50 was 10 µM [falling, partial curve].
With `COCCCn1c(CCC(=O)O)ccc1-c1ccc(F)cc1` the figure was 25.1 µM [falling, partial curve].
For `COc1ccc(C2=Nc3ccc(OC(F)(F)F)cc3NC(c3cccnc3)=N2)cc1` the value was 39.8 µM [falling, single point]; for `COc1ccc(CNC(=O)C2CCN(S(=O)(=O)c3ccc4c(c3)CCCN4C(C)=O)CC2)cc1`, 39.8 µM [falling, single point]; for `CCc1ccccc1NC(=O)c1sc(-n2nc(C)c(Cc3ccccc3)c2C)nc1C`, 0.0501 µM [falling, full curve, poor fit].
For `COCc1cc(C)nc2sc3c(=O)n(-c4ccccc4C(F)(F)F)nnc3c12` the value was 3.16 µM [rising, single point]; for `O=C(O)C1CC(=O)N(c2ccc(OCc3c(F)cccc3Cl)cc2)C1` (stereo not drawn), 5.01 µM [falling, partial curve].
For the compound `Cc1ccc(C)c(CSc2nnc3[nH]c(=O)cc(-c4ccccc4)n23)c1`, the AC50 was 25.1 µM [falling, single point].
Turning to `CCNc1c(N)c(=O)oc2ccccc12`, the AC50 was 1 µM [falling, full curve].
Consider `Cc1c(C(=O)N2CCCCC2)oc2ccc(S(=O)(=O)N3CC(C)CC(C)C3)cc12` (stereo not drawn), for which the half-maximal activity concentration (AC50) was 12.6 µM [falling, partial curve].
In the case of `Cc1cccc(NC(=O)C2CCN(S(=O)(=O)c3ccc4c(c3)CCCN4C(=O)C3CCC3)CC2)c1`, the AC50 was 39.8 µM [falling, single point].
As to `Cc1cccc(C)c1-n1ncc(C(=O)N2CCN(c3ncccn3)CC2)c1C1CCN(C(=O)OC(C)(C)C)CC1`, the AC50 was 20 µM [falling, partial curve].
Turning to `O=C(COc1ccc(F)cc1)Nc1nnc(SCc2cc(=O)n3ccccc3n2)s1`, the concentration at half-maximal activity (AC50) is 1 µM [falling, full curve].
With `N#C/C(C(=O)c1ccccc1)=C1/SC=C(N)N1c1ccccc1` the figure was 25.1 µM [falling, partial curve].
As to `O=C(Nc1nc2n(n1)C(c1ccccc1)C=C(c1ccc(Cl)cc1)N2)c1ccco1` (stereo not drawn), the AC50 was 15.8 µM [falling, partial curve].
Take `COc1cccc(Cn2c(SCc3ccc(C(=O)N4CCCCC4)cc3)nc3ccncc32)c1`: the concentration at half-maximal activity (AC50) was 25.1 µM [falling, single point].
Consider `Cc1cc(Cl)ccc1NC(=O)CN1C(=O)COc2ccc(S(=O)(=O)Nc3ccccc3)cc21`, for which the AC50 was 20 µM [falling, partial curve].
Regarding `CCc1c(C)nc2[nH]nc(-c3ccccc3C)n2c1=O`, the AC50 was 6.31 µM [falling, partial curve].
Consider `Cc1ccc(CN(Cc2ccco2)C(=O)COc2cccc(C)c2C)o1`, for which the AC50 is 31.6 µM [falling, single point].
